PubChem BioAssay AID504791 | Drosophila RNAi Screening Center, 2011
Test: 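Genes whose knock-down strengthens or weakens small-RNA reporter silencing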 (primary screen). Cells: Drosophila S2-derived reporter cells. Reagents: long dsRNA against Drosophila genes, about 150-250 ng dsRNA per well (siRNA assay); about 80-120 ng (miRNA assay). Timing: about 5 days (siRNA assay); about 4 days (miRNA assay). Challenge: copper sulfate induction of reporters: 25 µM (siRNA assay); 200 mM stated (miRNA assay), 1-2 days before reading. Measured: 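Dual luciferase assay: Renilla to firefly signal ratio in each well, scaled to the mean ratio of its plate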. Call rule: 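a well was a first-pass pick when its plate-scaled ratio rose above 1.5 (siRNA assay) or 1.6 (miRNA assay), or dropped below 0.6; a gene counted only if two separate dsRNAs agreed on retest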.
The screen tested about 23,000 reagents; this is a random part of those with a known target gene and a result. Of all reagents, 199 (0.86%) were called active. 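Plate-scaled ratios behind the calls are not deposited; printed light signals are raw; many rows marked increased or decreased are still called inactive.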 The numbers tell different reagents against one gene apart. Names joined by + are all predicted targets of the reagent. Not given: the direction of the score.

| Gene | reagent | miRNA reporter change | stable assay Renilla, run 1 (luminescence) | stable assay firefly, run 1 (luminescence) | Outcome |
| --- | --- | --- | --- | --- | --- |
| CG33013 (retired record) | 1 | – | 6398 | 3.30e5 | inactive |
| CG5447 | 1 | – | 6791 | 4.20e5 | inactive |
| fd96Ca | 1 | – | 6871 | 3.99e5 | inactive |
| Mccc2 | 1 | – | 6362 | 3.74e5 | inactive |
| TpnC47D | 1 | – | 5947 | 3.72e5 | inactive |
| Psa | 1 | – | 13567 | 4.29e5 | inactive |
| mthl9 | 1 | – | 6655 | 3.67e5 | inactive |
| CG42820 + CG42819 | 1 | – | 8006 | 4.30e5 | inactive |
| CG42820 + CG42819 | 2 | – | 7067 | 3.90e5 | inactive |
| Gcna | 1 | – | 8358 | 4.87e5 | inactive |
| Ets97D | 1 | – | 5799 | 4.19e5 | inactive |
| alka | 1 | – | 6442 | 3.39e5 | inactive |
| CG4752 | 1 | – | 6506 | 4.77e5 | inactive |
| Tsp42Ek | 1 | – | 7094 | 4.07e5 | inactive |
| Grip84 | 1 | – | 8390 | 4.89e5 | inactive |
| Grip84 | 2 | reporter ratio raised past the hit cutoff | – | – | inactive |
| CG13185 | 1 | – | 9224 | 5.75e5 | inactive |
| dco | 1 | – | 6040 | 4.25e5 | inactive |
| Dlip1 | 1 | – | 5852 | 4.67e5 | inactive |
| Gp150 | 1 | – | 4067 | 4.08e5 | inactive |
| Schip1 | 1 | – | 7360 | 4.10e5 | inactive |
| CG30172 | 1 | – | 9975 | 5.29e5 | inactive |
| CG15196 | 1 | – | 4907 | 4.53e5 | inactive |
| wun2 | 1 | – | 6704 | 3.89e5 | inactive |
| CG15544 | 1 | – | 6151 | 3.10e5 | inactive |
| CG33468 | 1 | – | 4047 | 3.13e5 | inactive |
| Atg17 | 1 | – | 5991 | 3.24e5 | inactive |
| CG4702 | 1 | – | 9958 | 5.52e5 | inactive |
| CG9395 | 1 | – | 11211 | 5.73e5 | inactive |
| mwh | 1 | – | 6876 | 4.62e5 | inactive |
| jet | 1 | – | 13621 | 7.43e5 | inactive |
| CG4238 | 1 | – | 6063 | 4.54e5 | inactive |
| CG4238 | 2 | – | 7398 | 5.54e5 | inactive |
| CG7943 | 1 | – | 8588 | 3.48e5 | inactive |

3 successive records from above, quoted:
| Gene | reagent | miRNA reporter change | stable assay Renilla, run 1 (luminescence) | stable assay firefly, run 1 (luminescence) | Outcome |
| --- | --- | --- | --- | --- | --- |
| Mccc2 | 1 | – | 6362 | 3.74e5 | inactive |
| TpnC47D | 1 | – | 5947 | 3.72e5 | inactive |
| Psa | 1 | – | 13567 | 4.29e5 | inactive |
